Results are given in words; binding and its absence hold for the method and conditions named. In cells and extracts the contact can be indirect. Some entries that bind do so weakly or less than the wild type. Sequences can lack the tags named with a protein.

Sequences of proteins named here, by UniProt entry; tags and fusion partners are left off. A change or cut given only in a name is not applied to a line headed by its entry.
UniProt Q99523: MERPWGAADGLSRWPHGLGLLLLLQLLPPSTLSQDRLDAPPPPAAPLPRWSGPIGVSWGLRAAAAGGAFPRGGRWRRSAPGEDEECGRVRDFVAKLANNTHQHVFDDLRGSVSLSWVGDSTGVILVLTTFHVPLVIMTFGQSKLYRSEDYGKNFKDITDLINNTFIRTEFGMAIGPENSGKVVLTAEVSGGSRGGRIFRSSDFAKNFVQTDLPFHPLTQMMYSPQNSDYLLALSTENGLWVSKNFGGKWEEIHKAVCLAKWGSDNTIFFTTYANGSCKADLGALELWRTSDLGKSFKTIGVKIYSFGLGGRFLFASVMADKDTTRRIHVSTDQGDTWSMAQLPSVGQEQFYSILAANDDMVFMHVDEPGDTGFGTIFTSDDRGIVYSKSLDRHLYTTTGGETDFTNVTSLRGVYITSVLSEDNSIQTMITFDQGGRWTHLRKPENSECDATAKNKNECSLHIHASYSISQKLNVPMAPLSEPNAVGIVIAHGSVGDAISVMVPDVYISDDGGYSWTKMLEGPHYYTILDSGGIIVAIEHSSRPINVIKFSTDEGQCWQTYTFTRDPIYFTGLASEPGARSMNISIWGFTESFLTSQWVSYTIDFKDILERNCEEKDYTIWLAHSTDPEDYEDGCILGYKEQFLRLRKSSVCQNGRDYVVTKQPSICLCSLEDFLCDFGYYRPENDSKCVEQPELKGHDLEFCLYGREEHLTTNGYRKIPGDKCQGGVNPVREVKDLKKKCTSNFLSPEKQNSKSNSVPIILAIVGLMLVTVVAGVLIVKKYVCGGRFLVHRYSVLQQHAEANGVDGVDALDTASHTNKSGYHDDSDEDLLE

The target in assay [1] is FLAG-sortilin ECD+TMD (human) (UniProt Q99523). Put plainly: co-immunoprecipitation with anti-FLAG M2, HEK293 cells.
Assay [2] addresses FLAG-sortilin full-length (Full) (human) (UniProt Q99523). Described as above.

B1: 6×His-sortilin ICD+TMD (receptor)
chain: SAPHHHHHHNSVPIILAIVGLMLVTVVAGVLIVKKYVCGGRFLVHRYSVLQQHAEANGVDGVDALDTASHTNKSGYHDDSDEDLLE
On to B1, for which the binding result in assay [1] and in assay [2] was “binds” each time.

For the origin of these results see patent publication US20200330553A1.
